# Source: PubChem BioAssay AID686937 (Drosophila RNAi Screening Center, 2013)
# Test: 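Genes in the fly needed for secretion of protein constitutively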 (primary screen)
# System: Drosophila S2 cells expressing secreted horseradish peroxidase
# Reagent: long dsRNA against Drosophila genes
# Time to read-out: about 5.5 days (5 days dsRNA, then 12 h reporter induction)
# Conditions: reporter expression induced after 5 days of dsRNA, read 12 h later; inducer not stated
# Detection: 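After 5 days of dsRNA and 12 h of reporter induction, medium peroxidase read by chemiluminescence and scored as per-plate z-score; higher values mean more reporter released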
# Direction: z-score: higher = more reporter secreted into medium
# In all, the deposit lists about 23,000 reagents; this is a random part of those that have a named target and a result. 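Reduced-secretion tags in replicate 1 do not always agree with the z-scores; no criterion for assigning the tags was given.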 Names joined by + are all predicted targets of the reagent. Not stated in the record: the amount of reagent.
"z-score, replicate 1","z-score, replicate 2","z-score, replicate 3","z-score, replicate 4","phenotype, replicate 1",predicted target,dsRNA
0.18,-0.08,,,,CG10286,DRSC12520
0.28,0.26,,,,CG11180,DRSC06055
0.01,0.37,,,,Marc (Mitochondrial amidoxime reducing component),DRSC06614
0.23,0.19,,,,arx (asterix),DRSC10386
0.07,-0.05,,,,Gr59e (Gustatory receptor 59e),DRSC04276
0.48,0.72,,,,CG8087,DRSC16375
0.36,0.25,,,,Pdi (Protein disulfide isomerase),DRSC11250
0.52,0.57,,,,CG42374 + Mettl5,DRSC11085
0.03,-0.41,,,,CG42394 + CG6567,DRSC12821
0.25,0.25,,,,CG8187,DRSC07099
0.49,-0.08,,,,Ubc87F (Ubiquitin conjugating enzyme 87F),DRSC16513
0.29,0.39,-0.01,0.31,,ced-6,DRSC07591
0.24,0.31,,,,CG6296,DRSC16013
0.41,0.07,,,,Spt (Spitting Image),DRSC07123
0.32,0.38,,,,CG3640,DRSC04399
0.19,-0.03,,,,Agps (Alkylglycerone phosphate synthase),DRSC05984
0.24,0.13,,,,Gr58c (Gustatory receptor 58c),DRSC04136
0.28,0.64,,,,ymp (yellow-emperor),DRSC13720
0.2,0.29,,,,ymp (yellow-emperor),DRSC14482
-2.11,-0.8,,,reduced secretion,Ras85D (Ras oncogene at 85D),DRSC16814
0.17,0.07,,,,Gr68a (Gustatory receptor 68a),DRSC10803
0.41,0.33,,,,CG13380 + CG4174,DRSC09988
-0.08,0.25,,,,CG13380 + CG4174,DRSC10406
1.3,0.2,,,,lncRNA:noe (long non-coding RNA:noe),DRSC22747
0.22,0.32,,,,Cyp12a5 (Cytochrome P450 12a5),DRSC16621
0.16,0.43,,,,Irp-1B (Iron regulatory protein 1B),DRSC16720
0.15,0.27,,,,Scp1 (Sarcoplasmic calcium-binding protein 1),DRSC20799
0.51,0.48,,,,Scp1 (Sarcoplasmic calcium-binding protein 1),DRSC20803
0.44,0.11,,,,Scp1 (Sarcoplasmic calcium-binding protein 1),DRSC20806
0.46,0.34,,,,Oseg2 (Outer segment 2),DRSC08343
0.53,0.31,,,,CG18538,DRSC06765
0.33,0.52,,,,CG9986,DRSC16586
0.35,-0.01,,,,CG32440,DRSC11480
0,0.09,,,,Gr47a (Gustatory receptor 47a),DRSC06221
0.53,0.47,,,,CG8620,DRSC11020
0.16,-0.27,,,,Gnmt (Glycine N-methyltransferase),DRSC15987
0.29,0.25,,,,Or67b (Odorant receptor 67b),DRSC11241
-0.31,-0.17,,,,CG15927,DRSC19742
0.01,-0.01,,,,vanin-like,DRSC17440
0.65,0.51,,,,CG31898,DRSC01019
0.31,0.29,,,,CG3566,DRSC18311
0.4,0.46,,,,uno (univalents only),DRSC07244
0.34,0.2,,,,form3 (formin 3),DRSC10195
-0.17,0.05,,,,form3 (formin 3),DRSC10297
0.51,0.39,,,,form3 (formin 3),DRSC11024
0.3,0.3,,,,CG5653,DRSC10534
0.29,0.39,,,,Neb-cGP,DRSC17991
-5.2,-6.84,,,reduced secretion,hay (haywire),DRSC11354
-0.38,-0.84,,,,px (plexus),DRSC04708
0.07,0.3,,,,CG31380,DRSC15688
0.26,0.11,,,,fidipidine,DRSC07618
0.6,0.25,,,,sunn,DRSC21659
0.4,0.52,,,,CG10898,DRSC14279
0.37,0.44,,,,CG5597,DRSC04517
0.62,0.37,0.52,0.45,,CG5214,DRSC15739
0.35,0.14,,,,CG5214,DRSC22842
0.47,0.48,,,,ey (eyeless),DRSC17173
0.23,0.54,,,,CG31327,DRSC13019
0.27,0.4,,,,Exo70 (Exocyst 70),DRSC10774
-3.46,0.38,0.27,-1.12,,CG9853,DRSC12343
0.21,0.66,,,,CG9853,DRSC22840
0.3,0.16,,,,AnxB10 (Annexin B10),DRSC20677
0.4,0.35,,,,CG10051,DRSC05959
-0.11,-0.11,,,,CG32640 + CG32641,DRSC22885
0.57,0.39,,,,Ced-12,DRSC02840
0.51,0.47,,,,CG34241,DRSC09157
0.29,0.2,,,,CG4074,DRSC11752
0.09,0.31,,,,CG15478,DRSC18057
0.27,-0.07,,,,"AspRS-m (Aspartyl-tRNA synthetase, mitochondrial)",DRSC02646
-0.05,-0.07,,,,dre4,DRSC08714
0.3,0.32,,,,TfIIA-S-2,DRSC17791
-0.16,0.17,,,,CG15515,DRSC15054
0.53,0.15,0.39,-0.13,,ND2 (retired record),DRSC21274
0.54,0.31,,,,CG2540,DRSC19856
0.37,0.42,,,,CG11883,DRSC06094
0.27,-0.25,,,,how (held out wings),DRSC16966
0.56,0.14,,,,CG43057,DRSC01015
0.45,0.18,,,,Vps11 (Vacuolar protein sorting 11),DRSC11909
-0.34,-0.02,,,,Vps11 (Vacuolar protein sorting 11),DRSC21579
0.35,0.11,,,,CG14007,DRSC02339
0.17,0.2,,,,CG34433,DRSC15077
0.13,0.37,,,,CG31495,DRSC16762
